Measurements reported in PubChem BioAssay AID743121 (NCATS, 2013).
This is one part, drawn at random, of about 26,000 deposited reagents. 167 of all reagents (0.63%) were called active. 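Calls are per gene from RSA p-values that are not deposited; an individual active-marked siRNA can sensitise only weakly.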 Reagents against one gene are numbered here.

Screen: 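Partners whose loss is lethal together with topoisomerase I blockade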 (primary screen)
Cell system: MDA-MB-231 cells, a human breast cancer line
Reagents: single siRNA against human genes, 20 nM siRNA (0.8 pmol per well)
Duration: 120 h (drug added 48 h after transfection, read 72 h later)
Treatment: camptothecin 20 nM (about EC30) for 72 h; vehicle 0.1% DMSO in parallel plates
Measurement: 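Cell viability by ATP luminescence (CellTiter-Glo) as % of non-targeting siRNA wells, and the log2 ratio of viability without drug over viability with camptothecin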
Reading the numbers: log2 vehicle/camptothecin viability: higher = stronger sensitisation to camptothecin; viability with camptothecin and viability without drug: higher = more viable cells
Call rule: 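Active genes have an RSA gene-level p-value below 0.001, computed from the ratios of their separate siRNAs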

gene knocked down | reagent | log2 vehicle/camptothecin viability | viability with camptothecin (% of control) | viability without drug (% of control) | outcome
GPRC5B | 1 | -0.555 | 75.4 | 51.3 | inactive
GPRC5B | 2 | 0.587 | 29 | 43.5 | inactive
GPRC5B | 3 | -0.256 | 79.1 | 66.2 | inactive
GPRC5B | 4 | -0.0775 | 76.2 | 72.2 | inactive
INTS5 | 1 | -0.557 | 93.3 | 63.4 | inactive
INTS5 | 2 | -0.0028 | 86.5 | 86.4 | inactive
INTS5 | 3 | -0.402 | 64.2 | 48.5 | inactive
INTS5 | 4 | -0.309 | 40.8 | 32.9 | inactive
TRIM59 | 1 | -0.217 | 69.4 | 59.7 | inactive
TRIM59 | 2 | -0.0933 | 104 | 97.2 | inactive
TRIM59 | 3 | -0.155 | 99.8 | 89.7 | inactive
TRIM59 | 4 | 0.0442 | 86.6 | 89.3 | inactive
VPREB1 | 1 | -0.0157 | 97.7 | 96.7 | inactive
VPREB1 | 2 | -0.37 | 87.6 | 67.8 | inactive
VPREB1 | 3 | 0.107 | 47.3 | 51 | inactive
VPREB1 | 4 | -0.299 | 55.3 | 45 | inactive
HSDL2 | 1 | 0.0268 | 51.1 | 52.1 | inactive
HSDL2 | 2 | -0.295 | 113 | 91.7 | inactive
HSDL2 | 3 | -0.184 | 75.4 | 66.4 | inactive
HSDL2 | 4 | -0.431 | 96.3 | 71.5 | inactive
IBTK | 1 | 0.287 | 18.3 | 22.4 | inactive
IBTK | 2 | -0.0234 | 97.8 | 96.2 | inactive
IBTK | 3 | -0.0942 | 71.5 | 67 | inactive
IBTK | 4 | -0.258 | 89.7 | 75 | inactive
DNAAF10 | 1 | -0.0414 | 75.5 | 73.3 | inactive
DNAAF10 | 2 | -0.305 | 51.3 | 41.5 | inactive
DNAAF10 | 3 | -0.637 | 84.7 | 54.5 | inactive
DNAAF10 | 4 | 0.13 | 51.2 | 56 | inactive
CARS2 | 1 | -0.453 | 66 | 48.2 | inactive
CARS2 | 2 | 0.0206 | 65.8 | 66.7 | inactive
CARS2 | 3 | -0.191 | 99.7 | 87.4 | inactive
CARS2 | 4 | -0.118 | 99.1 | 91.3 | inactive
CDK20 | 1 | -0.316 | 101 | 81.1 | inactive
CDK20 | 2 | 0.11 | 41.5 | 44.8 | inactive
CDK20 | 3 | -0.497 | 93.6 | 66.3 | inactive
CDK20 | 4 | 0.046 | 50.1 | 51.7 | inactive
OLFM4 | 1 | -0.57 | 66.4 | 44.7 | inactive
OLFM4 | 2 | -0.147 | 92.8 | 83.8 | inactive
OLFM4 | 3 | -0.16 | 8.46 | 7.58 | inactive
OLFM4 | 4 | -0.311 | 44.1 | 35.6 | inactive

Continued, starting with the last 5 of the part before.
gene knocked down | reagent | log2 vehicle/camptothecin viability | viability with camptothecin (% of control) | viability without drug (% of control) | outcome
CDK20 | 4 | 0.046 | 50.1 | 51.7 | inactive
OLFM4 | 1 | -0.57 | 66.4 | 44.7 | inactive
OLFM4 | 2 | -0.147 | 92.8 | 83.8 | inactive
OLFM4 | 3 | -0.16 | 8.46 | 7.58 | inactive
OLFM4 | 4 | -0.311 | 44.1 | 35.6 | inactive
MAPKAPK5 | 1 | 0.0217 | 70.6 | 71.6 | inactive
MAPKAPK5 | 2 | -0.121 | 99.4 | 91.5 | inactive
MAPKAPK5 | 3 | -0.361 | 79.7 | 62.1 | inactive
MAPKAPK5 | 4 | -0.394 | 42.4 | 32.3 | inactive
TUBA8 | 1 | -0.149 | 69.8 | 63 | inactive
TUBA8 | 2 | 0.0378 | 107 | 110 | inactive
TUBA8 | 3 | -0.0779 | 83 | 78.7 | inactive
TUBA8 | 4 | 0.14 | 85.6 | 94.3 | inactive
ADAM18 | 1 | 0.0641 | 75.3 | 78.7 | inactive
ADAM18 | 2 | -0.062 | 90.2 | 86.4 | inactive
ADAM18 | 3 | -0.105 | 108 | 99.9 | inactive
ADAM18 | 4 | -0.227 | 88.7 | 75.8 | inactive
PSMA6 | 1 | -0.106 | 27.9 | 25.9 | inactive
PSMA6 | 2 | -0.377 | 26.8 | 20.6 | inactive
PSMA6 | 3 | 0.244 | 9.17 | 10.9 | inactive
PSMA6 | 4 | -0.423 | 24.1 | 18 | inactive
COG8 | 1 | -0.258 | 74.1 | 62 | inactive
COG8 | 2 | -0.0575 | 73.6 | 70.7 | inactive
COG8 | 3 | 0.0356 | 43.2 | 44.3 | inactive
COG8 | 4 | 0.311 | 30.7 | 38.1 | inactive
ADGRE1 | 1 | -0.218 | 76 | 65.4 | inactive
ADGRE1 | 2 | -0.419 | 100 | 75 | inactive
ADGRE1 | 3 | -0.481 | 120 | 85.9 | inactive
ADGRE1 | 4 | -0.38 | 77.2 | 59.4 | inactive
RGS12 | 1 | 0.0787 | 90.8 | 95.9 | inactive
RGS12 | 2 | -0.0714 | 86.8 | 82.7 | inactive
RGS12 | 3 | -0.292 | 96.6 | 78.9 | inactive
RGS12 | 4 | -0.256 | 89.5 | 75 | inactive
RGS12 | 5 | -0.255 | 102 | 85.2 | inactive
RGS12 | 6 | -0.221 | 43.4 | 37.3 | inactive
